Data as given in PubChem BioAssay AID504774 (Drosophila RNAi Screening Center, 2011)
Purpose: 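Knock-downs that shift viability of MMS-exposed cells relative to untreated ones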 (primary screen). Cell system: Drosophila Kc167 cells. Reagents: long dsRNA against Drosophila genes, about 0.25 µg dsRNA per well. Time to read-out: about 6 days: 3 days knock-down, then 3 days with or without MMS. Conditions: methyl methanesulphonate 0.004% (w/v) for 3 days after knock-down. Detection: 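Viability in wells given MMS, read as ATP luminescence, normalised by quantiles plate by plate and averaged across replicates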. Reading the numbers: mean viability with MMS and viability with MMS: higher = more surviving cells after MMS.
The deposit covers about 23,000 reagents; shown is an unselected part of those that have a named target and a result. 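Values are quantile-normalised luminescence on an arbitrary scale; higher means more cells surviving MMS.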 Not all columns of the deposit are shown. Reagent sequences are not shown.

CG11986 [DRSC14461] — mean viability with MMS: 3.73e6; viability with MMS, replicate 1: 4.36e6
Polr1A (RNA polymerase I subunit A) [DRSC07535] — mean viability with MMS: 3.51e6; viability with MMS, replicate 1: 3.94e6
CG15109 [DRSC06536] — mean viability with MMS: 3.54e6; viability with MMS, replicate 1: 4.12e6
CG31347 [DRSC21582] — mean viability with MMS: 3.35e6; viability with MMS, replicate 1: 3.88e6
CG3511 [DRSC04382] — mean viability with MMS: 3.47e6; viability with MMS, replicate 1: 3.82e6
unc-5 [DRSC05545] — mean viability with MMS: 3.56e6; viability with MMS, replicate 1: 4.09e6
unc-5 [DRSC07711] — mean viability with MMS: 3.36e6; viability with MMS, replicate 1: 4.10e6
unc-5 [DRSC07712] — mean viability with MMS: 3.61e6; viability with MMS, replicate 1: 4.11e6
CG4835 [DRSC10452] — mean viability with MMS: 3.35e6; viability with MMS, replicate 1: 3.79e6
CG7296 [DRSC03042] — mean viability with MMS: 3.62e6; viability with MMS, replicate 1: 4.12e6
CG7296 [DRSC22343] — mean viability with MMS: 3.49e6; viability with MMS, replicate 1: 3.99e6
CG11695 [DRSC19416] — mean viability with MMS: 3.48e6; viability with MMS, replicate 1: 3.91e6
dati (datilografo) [DRSC17128] — mean viability with MMS: 3.55e6; viability with MMS, replicate 1: 4.14e6
dati (datilografo) [DRSC17153] — mean viability with MMS: 3.61e6; viability with MMS, replicate 1: 4.16e6
gig (gigas) [DRSC11351] — mean viability with MMS: 3.83e6; viability with MMS, replicate 1: 4.40e6
Sodh1 (Sorbitol dehydrogenase 1) [DRSC12605] — mean viability with MMS: 3.70e6; viability with MMS, replicate 1: 4.19e6
sfl (sulfateless) [DRSC08828] — mean viability with MMS: 3.34e6; viability with MMS, replicate 1: 3.78e6
sfl (sulfateless) [DRSC08830] — mean viability with MMS: 3.55e6; viability with MMS, replicate 1: 4.08e6
jtb (jetboil) [DRSC06868] — mean viability with MMS: 3.49e6; viability with MMS, replicate 1: 3.90e6
robl22E [DRSC00289] — mean viability with MMS: 3.62e6; viability with MMS, replicate 1: 4.03e6
CG8677 [DRSC03107] — mean viability with MMS: 3.60e6; viability with MMS, replicate 1: 3.99e6
Rac1 [DRSC08688] — mean viability with MMS: 3.65e6; viability with MMS, replicate 1: 4.18e6

Continued; the last 4 above are carried over.
jtb (jetboil) [DRSC06868] — mean viability with MMS: 3.49e6; viability with MMS, replicate 1: 3.90e6
robl22E [DRSC00289] — mean viability with MMS: 3.62e6; viability with MMS, replicate 1: 4.03e6
CG8677 [DRSC03107] — mean viability with MMS: 3.60e6; viability with MMS, replicate 1: 3.99e6
Rac1 [DRSC08688] — mean viability with MMS: 3.65e6; viability with MMS, replicate 1: 4.18e6
hts (hu li tai shao) [DRSC07629] — mean viability with MMS: 3.45e6; viability with MMS, replicate 1: 3.83e6
CG12499 [DRSC14521] — mean viability with MMS: 3.51e6; viability with MMS, replicate 1: 4.15e6
gce (germ cell-expressed bHLH-PAS) [DRSC19613] — mean viability with MMS: 3.48e6; viability with MMS, replicate 1: 3.91e6
gce (germ cell-expressed bHLH-PAS) [DRSC19974] — mean viability with MMS: 3.32e6; viability with MMS, replicate 1: 3.73e6
O-fut1 (O-fucosyltransferase 1) [DRSC06138] — mean viability with MMS: 3.68e6; viability with MMS, replicate 1: 4.09e6
Ugt36F1 (UDP-glycosyltransferase family 36 member F1) [DRSC02601] — mean viability with MMS: 3.63e6; viability with MMS, replicate 1: 4.09e6
homer [DRSC03547] — mean viability with MMS: 3.50e6; viability with MMS, replicate 1: 4.03e6
CG18088 [DRSC02654] — mean viability with MMS: 3.66e6; viability with MMS, replicate 1: 4.07e6
CG30089 [DRSC06126] — mean viability with MMS: 3.54e6; viability with MMS, replicate 1: 3.95e6
CG30089 [DRSC06127] — mean viability with MMS: 2.50e6; viability with MMS, replicate 1: 2.87e6
CG30089 [DRSC06267] — mean viability with MMS: 3.47e6; viability with MMS, replicate 1: 3.89e6
CG30089 [DRSC06268] — mean viability with MMS: 1.98e6; viability with MMS, replicate 1: 4.21e6
CG30089 [DRSC21694] — mean viability with MMS: 3.43e6; viability with MMS, replicate 1: 3.85e6
